Assay results: PubChem BioAssay AID588497 (NMMLSC, 2011)
Among all 360,000 compounds or so, about 780 (0.22%) were called active. The inconclusive results got no clear call from the source; some entries with a clear call stand among them for comparison. No stated cut-off is given here; in the data, active means inhibition above about 35% (passing the limit was not always enough); inconclusive means no clear call, values can overlap the other calls.

These compounds were tested on Botulinum neurotoxin type F light chain protease (Clostridium botulinum) (assay: BoNT/F light chain protease inhibitors, primary screen, biochemical, flow cytometry, MLPCN library (AID 588497; further: plate controls were buffer without enzyme for full effect and enzyme alone for no effect)). Conditions: Multiplex microsphere protease cleavage assay, at 10 µM, stronger effect = higher value.

Question: Which inhibition does the source give for `COc1ccccc1C(=O)NC(=O)COC(=O)c1cnc(C)cn1` here?
Answer: inconclusive: 28.6%

Question: Which inhibition does the source give for `Cc1ccc(N2C(N)=NC(N)=NC2(C)C)c(C)c1` here?
Answer: inconclusive: -0.8%

Question: Which inhibition does the source give for `CCCCC(=O)Nc1ccc(C(=O)NCCN2CCOCC2)cc1` here?
Answer: inconclusive: 30.2%

Question: `Cn1nc(-c2ccccc2)cc1NC(=O)c1cccs1` was tested. Which inhibition did it give?
Answer: inconclusive: -21.6%

Question: With `COc1ccc2cnn(-c3ccc(OC(F)(F)Cl)cc3)c(=O)c2c1OC` as the compound, how does the inhibition read?
Answer: inconclusive: -49.2%

Question: Which inhibition does the source give for `COc1c(S(=O)(=O)NCCCn2ccnc2)ccc(Cl)c1Cl` here?
Answer: inconclusive: -20.3%

Question: Which inhibition does the source give for `COc1ccc(C(C#N)N2N=C(C)CC2c2ccccc2)cc1OC` (stereo unspecified) here?
Answer: inconclusive: 6.2%

Question: How did the inhibition turn out when `Cc1cccc(C(=O)NNC(=O)c2ccccc2O)c1` was run?
Answer: inconclusive: -11.4%

Question: `Cc1c(/C=N/NC(N)=O)c2ccccn2c1C(=O)c1ccc(F)cc1` was tested. Which inhibition did it give?
Answer: inactive: -2.1%

Question: `COc1cccc(CC(NC(C)=O)C(=O)NC2CCN(c3nc(C)cc(C)c3C#N)CC2)c1` (stereo unspecified) was tested. Which inhibition did it give?
Answer: inconclusive: 23.5%

Question: `CC(C)n1nnnc1C(c1ccc(F)cc1)N1CCN(C2CCCC2)CC1` (stereo unspecified) was tested. Which inhibition did it give?
Answer: inconclusive: 23%

Question: `CCOc1cc(CNc2ccc(CNc3ncn[nH]3)cc2)ccc1OCc1ccccc1` was tested. Which inhibition did it give?
Answer: inactive: -6.8%

Question: For `O=C(Nc1ccccc1C(=O)O)/C(=C/c1ccc(Cl)cc1Cl)NC(=O)c1ccco1`, which inhibition is on record?
Answer: inconclusive: -7.3%

Question: Which inhibition does the source give for `Cc1cccc2cc(/C=N/NC(=O)c3ccncc3)c(Cl)nc12` here?
Answer: inconclusive: 20.8%

Question: `c1ccc2[nH]c(Cn3nnc4ccccc43)nc2c1` was tested. Which inhibition did it give?
Answer: inactive: 8.2%

Question: Which inhibition does the source give for `CSc1ccccc1NC(=O)C1CC(c2c(F)cccc2Cl)=NO1` (stereo unspecified) here?
Answer: inconclusive: 1.2%

Question: Which inhibition does the source give for `Cc1nc2ccc(Cl)cc2nc1C` here?
Answer: inconclusive: -51%

Question: How did the inhibition turn out when `COCCNC(=O)c1cccc(OC2CCN(C(C)COc3ccccc3)CC2)c1` (stereo unspecified) was run?
Answer: inconclusive: 15.5%

Question: Which inhibition does the source give for `CC(C)=CC(=O)O[C@@H]1Cc2cc3ccc(=O)oc3cc2OC1(C)C` here?
Answer: inactive: -7.9%

Question: For `Cc1cc(=O)oc(C)c1C(=O)NNC(=O)C1(C)CC1Br` (stereo unspecified), which inhibition is on record?
Answer: inconclusive: -35.3%

Question: `O=C(CCCc1nc2ccccc2s1)NCc1ccc(F)cc1` was tested. Which inhibition did it give?
Answer: active: 39.6%

Question: With `C(=N\Nc1nncc2ccccc12)/c1ccccc1` as the compound, how does the inhibition read?
Answer: inconclusive: 57.8%

Question: How did the inhibition turn out when `Cc1cc(=O)n2[nH]c(SCc3c(F)cccc3Cl)nc2n1` was run?
Answer: inconclusive: -7.7%

Question: For `Cc1c(OC(C)C(=O)NCc2ccccn2)ccc2c3c(c(=O)oc12)CCC3` (stereo unspecified), which inhibition is on record?
Answer: inactive: 2.1%

Question: With `COC(=O)COc1cc(OCC(=O)OC)c2c(C)c(Cl)c(=O)oc2c1` as the compound, how does the inhibition read?
Answer: inactive: 2.6%

Question: For `COc1cc(C=NNc2ccc(S(=O)(=O)Nc3ccccc3C(=O)O)cc2[N+](=O)[O-])ccc1O`, which inhibition is on record?
Answer: inactive: -3.9%

Question: `CC(C)CN(C(=O)CCNC(=O)c1ccccc1Cl)C1CCS(=O)(=O)C1` (stereo unspecified) was tested. Which inhibition did it give?
Answer: inactive: 13.2%

Question: Which inhibition does the source give for `Cc1ccc(O)c(CNc2nc3ccccc3n2C(C)C)c1` here?
Answer: active: 37.7%

Question: Which inhibition does the source give for `COc1ccc(N2C(=O)C3C(C2=O)C(C(=O)c2ccc(Cl)cc2)N2CCCC32)cc1` (stereo unspecified) here?
Answer: inconclusive: 28.7%

Question: `CCCOc1cccc(C(=O)Nc2ccc3c(c2)OCCO3)c1` was tested. Which inhibition did it give?
Answer: inconclusive: -46.7%

Question: Which inhibition does the source give for `CCOC(=O)Cc1nnc(NC(=O)CSc2ncc(-c3ccccc3)nn2)s1` here?
Answer: inactive: -2.7%

Question: For `COc1cc(N=Cc2c(O)c3ccccc3oc2=O)c(OC)cc1Cl`, which inhibition is on record?
Answer: inconclusive: 52.7%

Question: Which inhibition does the source give for `CCOc1ccccc1C1C(C#N)=C(N)Oc2cc(C)n(Cc3ccccn3)c(=O)c21` (stereo unspecified) here?
Answer: inconclusive: -6.2%

Question: For `CCOc1ccc(-n2c(SCC(=O)Nc3ccc4c(c3)OCO4)nc3ccccc3c2=O)cc1`, which inhibition is on record?
Answer: inactive: -16.5%

Question: How did the inhibition turn out when `CCOC(=O)c1ccccc1NC(=O)c1cc2ccccc2o1` was run?
Answer: inconclusive: -3.3%

Question: Which inhibition does the source give for `Cn1c(=O)c(C(=O)NCCc2ccc(Cl)cc2)c(O)c2ccccc21` here?
Answer: inconclusive: 23.7%

Question: How did the inhibition turn out when `CN(C)N=Nc1ccc(S(=O)(=O)/N=C(\O)c2ccccc2)cc1` was run?
Answer: inconclusive: -4.7%

Question: For `COCc1cc(=O)[nH]c(SC)n1`, which inhibition is on record?
Answer: inconclusive: -3.2%

Question: With `COc1ccc(CCc2nnc(N)s2)cc1OC` as the compound, how does the inhibition read?
Answer: inconclusive: 15.9%

Question: With `CCc1cc2c(NC(Cc3ccccc3)C(=O)O)ncnc2s1` (stereo unspecified) as the compound, how does the inhibition read?
Answer: inconclusive: -5.8%

Question: `Cc1ccc2c(CC(=O)OCc3cc(=O)n4c(n3)sc3ccccc34)coc2c1` was tested. Which inhibition did it give?
Answer: inconclusive: -9.7%

Question: Which inhibition does the source give for `CCOC(=O)N1CC=C2C(C#N)=C(N)C(C#N)(C#N)[C@H](c3ccc(OC(C)C)c(OCC)c3)[C@H]2C1` here?
Answer: inconclusive: -8%

Question: Which inhibition does the source give for `CC(C)(C)NC(=O)C1c2ccccc2OCC(=O)N1Cc1ccc2c(c1)OCO2` (stereo unspecified) here?
Answer: inactive: -9.5%

Question: For `O=Cc1ccc(Oc2nc(Cl)ncc2F)cc1`, which inhibition is on record?
Answer: inconclusive: -4.8%

Question: `CC(C)c1nc2sc3ccccc3c(=O)c2c(=O)n1Cc1ccccc1` was tested. Which inhibition did it give?
Answer: inconclusive: 103%

Question: `C/C(=N\NC(=O)Cc1csc(N2CCOCC2)n1)c1ccc(Cl)c(Cl)c1` was tested. Which inhibition did it give?
Answer: inactive: -3.5%

Question: With `O=C(NCCc1ccccc1)C1CCC(=O)N(CCCN2CCCC2=O)C1` (stereo unspecified) as the compound, how does the inhibition read?
Answer: inconclusive: -4.6%

Question: With `Cc1ccc(N2C(=O)CC(C)(C)CC2=O)cc1Cl` as the compound, how does the inhibition read?
Answer: inconclusive: 17.2%

Question: How did the inhibition turn out when `COc1ccc2[nH]cc(S(=O)(=O)c3ccc(C(C)C)cc3)c(=O)c2c1` was run?
Answer: inactive: -0.2%

Question: Which inhibition does the source give for `COc1cc(/C=C/C(C)=O)cc(OC)c1OC` here?
Answer: inconclusive: 13.9%

Question: Which inhibition does the source give for `Cn1c(=O)[nH]c(=O)c2c1nc(N1CCCCC1)n2CC(O)COc1ccc([N+](=O)[O-])cc1` (stereo unspecified) here?
Answer: inconclusive: -14.7%

Question: `O=C(NCc1cccnc1)C1CCC(CNS(=O)(=O)c2cccc3nsnc23)CC1` (stereo unspecified) was tested. Which inhibition did it give?
Answer: inactive: 0.9%

Question: Which inhibition does the source give for `COC[C@H]1CCCN1c1ccc2c(c1)O[C@@H](COCc1ccccc1)CN([C@H](C)c1ccccc1)S2(=O)=O` here?
Answer: inactive: -1.9%

Question: Which inhibition does the source give for `COc1ccccc1N1C(=O)C2C3C=CC(CC3)C2C1=O` (stereo unspecified) here?
Answer: inconclusive: -4.2%

Question: `CC12CCC(C(=O)Nc3ccncc3)(CC1O)C2(C)C` (stereo unspecified) was tested. Which inhibition did it give?
Answer: inactive: -10.3%

Question: With `COc1ccccc1C(=O)NCCOc1ccc(C(C)(C)C)cc1` as the compound, how does the inhibition read?
Answer: inconclusive: 5%

Question: Which inhibition does the source give for `CCOC(=O)CCC(=O)N1CCOCCN(C(=O)CCC(=O)OCC)CCOCC1` here?
Answer: inconclusive: 5.6%

Question: With `COc1ccc(C2=NOC(C(=O)NCc3ccccn3)C2)cc1` (stereo unspecified) as the compound, how does the inhibition read?
Answer: active: 72.2%

Question: `CCc1ccccc1-n1nnc(-c2ccccc2)n1` was tested. Which inhibition did it give?
Answer: inactive: -13.4%

Question: With `O=C(N/N=C/c1ccc(O)c(O)c1)c1ccc(-n2cnnn2)cc1` as the compound, how does the inhibition read?
Answer: inactive: -1.4%

Question: For `COc1cc(/C=C/C(=O)NNC(=O)c2cccc(S(=O)(=O)N(C)C)c2)cc(OC)c1OC`, which inhibition is on record?
Answer: inconclusive: 1.2%

Question: How did the inhibition turn out when `Cc1ccc(S(=O)(=O)N2CCCCC2)cc1NC(=O)CNc1ccc(C(F)(F)F)cc1` was run?
Answer: inconclusive: 8.7%

Question: With `O=C1C(Cl)=C(Nc2ccc(F)cc2)C(=O)N1CCc1ccccc1` as the compound, how does the inhibition read?
Answer: inactive: 2.6%

Question: With `CCOC(=O)CS(=O)(=O)c1ccc2ccccc2c1` as the compound, how does the inhibition read?
Answer: inconclusive: 19.8%

Question: For `O=C(c1[nH]ncc1-c1ccc(Cl)cc1)C1CO1` (stereo unspecified), which inhibition is on record?
Answer: inconclusive: -41.9%

Question: `CN=c1scc(-c2ccc(F)cc2)n1/N=C/c1ccc(O)c(O)c1` was tested. Which inhibition did it give?
Answer: inactive: -6.6%

Question: Which inhibition does the source give for `O=S(=O)(c1ccccc1)N1CCNCC1` here?
Answer: inconclusive: 104%

Question: `CCc1ccc2c(c1)NC(=O)C2(C)Cc1ccc(C(F)(F)F)o1` (stereo unspecified) was tested. Which inhibition did it give?
Answer: inactive: -3.8%

Question: Which inhibition does the source give for `O=C(NCCCC(NC(=O)OCc1ccccc1)C(=O)O)OCc1ccccc1` (stereo unspecified) here?
Answer: inconclusive: -60.4%

Question: `O=C1CCCC2=C1C1(CCCC1)N=C(Nc1nc3cc(-c4ccccc4)ccc3o1)N2` was tested. Which inhibition did it give?
Answer: inactive: 11.5%

Question: With `O=S(=O)(c1ccc(F)cc1)N1CCc2ccccc21` as the compound, how does the inhibition read?
Answer: inconclusive: -10.4%

Question: Which inhibition does the source give for `COc1cccc(F)c1C(=O)NC(=O)Nc1ccc2nc(C)oc2c1` here?
Answer: inconclusive: 33.7%

Question: For `C[C@@]12C(=O)N(c3ccccc3)C(=O)N1[C@@H]1c3ccccc3OC[C@@H]1[C@H]2c1ccccc1`, which inhibition is on record?
Answer: inactive: -3.5%

Question: With `Cn1cnc(S(=O)(=O)Nc2ccc3c(c2)OCCO3)c1` as the compound, how does the inhibition read?
Answer: inconclusive: -37.6%

Question: `Cc1ccc(CNC(=O)c2ccc(Cl)c(S(N)(=O)=O)c2)n1C` was tested. Which inhibition did it give?
Answer: inconclusive: -21.3%

Question: For `CSc1sc(C(=O)NCC2CC2)cc1S(=O)(=O)C(C)C`, which inhibition is on record?
Answer: inconclusive: -7.2%

Question: How did the inhibition turn out when `CC(C)NC(=O)NC(=O)COC(=O)c1ccc(NC(=O)CC#N)cc1` was run?
Answer: inconclusive: 44.7%

Question: For `O=C(CNCc1ccccc1)NCCCN1CCCC1=O`, which inhibition is on record?
Answer: inconclusive: -47.2%

Question: How did the inhibition turn out when `CC(C(=O)Nc1ccccc1C(F)(F)F)N1CCN(C)CC1` (stereo unspecified) was run?
Answer: inconclusive: 34.3%

Question: How did the inhibition turn out when `O=C(C1COc2ccccc2O1)N1CCN(c2nc3c(F)cc(F)cc3s2)CC1` (stereo unspecified) was run?
Answer: inactive: -10%

Question: For `CCOC(=O)/C(=C\c1ccccc1)NC(=O)c1ccccc1`, which inhibition is on record?
Answer: inconclusive: 64.6%

Question: `COc1ccc(C)cc1NC(=O)c1ccc2c(c1)OCO2` was tested. Which inhibition did it give?
Answer: inactive: 1.6%

Question: With `CC1=Nc2ccccc2/C1=C/c1c(O)n(C)c(=O)[nH]c1=O` as the compound, how does the inhibition read?
Answer: inconclusive: -17.3%

Question: With `CC(=O)NC(c1ccc(F)c(F)c1)c1nc(-c2ccc(C)c(C)c2)cs1` (stereo unspecified) as the compound, how does the inhibition read?
Answer: inactive: -2.5%

Question: Which inhibition does the source give for `CCCCc1ccc(S(=O)(=O)NC2CCS(=O)(=O)C2)cc1` (stereo unspecified) here?
Answer: inconclusive: 26.6%

Question: With `COc1cc(NC(=S)NC(=O)c2ccc(F)cc2)ccc1NC(=O)c1ccco1` as the compound, how does the inhibition read?
Answer: inactive: 7.1%

Question: How did the inhibition turn out when `O=C(c1ccco1)N1CCN(c2ccc([N+](=O)[O-])cc2Cl)CC1` was run?
Answer: inactive: 1.1%

Question: For `Cc1onc(-c2c(F)cccc2Cl)c1-c1nnc(-c2ccc(C(F)(F)F)cc2)o1`, which inhibition is on record?
Answer: inconclusive: -6.6%

Question: Which inhibition does the source give for `CCn1nc(C)c([N+](=O)[O-])c1C(=O)NNC(=O)c1ccc(Cl)cc1` here?
Answer: inconclusive: -150%

Question: Which inhibition does the source give for `CC1(C)CC(NC(=O)C23CCC(C)(/C(=N/O)C2)C3(C)C)CC(C)(C)N1` (stereo unspecified) here?
Answer: inactive: -0.9%

Question: For `Cc1cccc(OC(C)C(=O)Nc2ccc(N3CCCCC3)cc2)c1` (stereo unspecified), which inhibition is on record?
Answer: inconclusive: -30.7%
